# From the supplement of paper PMC6411743
# Protein sequences, listed by entry. Tags and fused reporters are not part of them. Lines headed by an entry give the natural chain unless they say otherwise; changes in a name come on top.
# UniProt P84022, whole entry, looked up: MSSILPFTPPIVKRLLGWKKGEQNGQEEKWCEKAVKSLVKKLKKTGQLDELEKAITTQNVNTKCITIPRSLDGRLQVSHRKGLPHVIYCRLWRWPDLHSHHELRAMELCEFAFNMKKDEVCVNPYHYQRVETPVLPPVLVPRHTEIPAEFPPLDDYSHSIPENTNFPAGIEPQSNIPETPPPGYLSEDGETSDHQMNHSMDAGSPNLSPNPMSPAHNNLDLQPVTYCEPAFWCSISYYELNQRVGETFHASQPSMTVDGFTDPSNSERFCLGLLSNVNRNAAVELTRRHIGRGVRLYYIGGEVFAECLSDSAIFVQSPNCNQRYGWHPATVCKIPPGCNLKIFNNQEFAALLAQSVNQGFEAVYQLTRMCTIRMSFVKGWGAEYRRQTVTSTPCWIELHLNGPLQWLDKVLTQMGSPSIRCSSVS
# UniProt P54198, whole entry: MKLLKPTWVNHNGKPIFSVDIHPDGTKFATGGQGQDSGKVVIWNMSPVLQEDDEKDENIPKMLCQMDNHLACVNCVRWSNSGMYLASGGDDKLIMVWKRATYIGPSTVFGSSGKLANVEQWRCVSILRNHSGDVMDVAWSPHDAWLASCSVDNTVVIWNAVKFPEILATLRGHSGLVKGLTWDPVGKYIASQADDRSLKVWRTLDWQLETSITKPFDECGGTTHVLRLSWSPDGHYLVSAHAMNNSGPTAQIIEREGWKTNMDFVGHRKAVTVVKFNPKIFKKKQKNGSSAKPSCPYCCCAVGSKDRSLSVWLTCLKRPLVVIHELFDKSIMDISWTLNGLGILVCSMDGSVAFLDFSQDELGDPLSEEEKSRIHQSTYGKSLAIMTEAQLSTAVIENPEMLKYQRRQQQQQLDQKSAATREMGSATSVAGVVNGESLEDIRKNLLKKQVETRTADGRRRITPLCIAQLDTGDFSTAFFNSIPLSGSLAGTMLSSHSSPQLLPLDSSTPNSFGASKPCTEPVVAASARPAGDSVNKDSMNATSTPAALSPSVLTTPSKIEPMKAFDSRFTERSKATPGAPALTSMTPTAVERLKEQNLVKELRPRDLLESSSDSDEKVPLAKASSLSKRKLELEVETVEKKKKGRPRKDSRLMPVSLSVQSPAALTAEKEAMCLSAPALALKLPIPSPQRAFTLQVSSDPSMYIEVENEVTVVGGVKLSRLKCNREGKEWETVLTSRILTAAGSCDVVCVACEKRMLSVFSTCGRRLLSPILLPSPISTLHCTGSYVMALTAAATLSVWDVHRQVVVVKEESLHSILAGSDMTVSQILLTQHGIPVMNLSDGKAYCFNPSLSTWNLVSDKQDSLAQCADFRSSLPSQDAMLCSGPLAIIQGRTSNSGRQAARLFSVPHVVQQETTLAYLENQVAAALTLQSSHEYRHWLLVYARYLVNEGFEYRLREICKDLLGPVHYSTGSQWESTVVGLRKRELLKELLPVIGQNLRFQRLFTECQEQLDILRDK
# UniProt P55199: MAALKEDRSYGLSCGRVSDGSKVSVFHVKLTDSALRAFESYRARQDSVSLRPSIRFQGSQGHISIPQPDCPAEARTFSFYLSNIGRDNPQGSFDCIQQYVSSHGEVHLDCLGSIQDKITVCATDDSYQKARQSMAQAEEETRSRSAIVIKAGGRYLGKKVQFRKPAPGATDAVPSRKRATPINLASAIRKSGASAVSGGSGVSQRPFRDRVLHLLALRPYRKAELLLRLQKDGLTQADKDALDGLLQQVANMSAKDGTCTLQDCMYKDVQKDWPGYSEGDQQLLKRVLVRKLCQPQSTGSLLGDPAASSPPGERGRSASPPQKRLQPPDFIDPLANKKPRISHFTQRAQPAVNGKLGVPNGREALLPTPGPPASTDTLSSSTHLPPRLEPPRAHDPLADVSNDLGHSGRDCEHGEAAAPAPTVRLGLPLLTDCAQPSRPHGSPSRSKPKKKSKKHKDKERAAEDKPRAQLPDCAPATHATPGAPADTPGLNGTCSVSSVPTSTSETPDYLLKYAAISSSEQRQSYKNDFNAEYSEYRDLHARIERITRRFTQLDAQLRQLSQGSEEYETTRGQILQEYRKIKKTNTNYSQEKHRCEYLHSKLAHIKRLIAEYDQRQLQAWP
# UniProt P55884, whole entry: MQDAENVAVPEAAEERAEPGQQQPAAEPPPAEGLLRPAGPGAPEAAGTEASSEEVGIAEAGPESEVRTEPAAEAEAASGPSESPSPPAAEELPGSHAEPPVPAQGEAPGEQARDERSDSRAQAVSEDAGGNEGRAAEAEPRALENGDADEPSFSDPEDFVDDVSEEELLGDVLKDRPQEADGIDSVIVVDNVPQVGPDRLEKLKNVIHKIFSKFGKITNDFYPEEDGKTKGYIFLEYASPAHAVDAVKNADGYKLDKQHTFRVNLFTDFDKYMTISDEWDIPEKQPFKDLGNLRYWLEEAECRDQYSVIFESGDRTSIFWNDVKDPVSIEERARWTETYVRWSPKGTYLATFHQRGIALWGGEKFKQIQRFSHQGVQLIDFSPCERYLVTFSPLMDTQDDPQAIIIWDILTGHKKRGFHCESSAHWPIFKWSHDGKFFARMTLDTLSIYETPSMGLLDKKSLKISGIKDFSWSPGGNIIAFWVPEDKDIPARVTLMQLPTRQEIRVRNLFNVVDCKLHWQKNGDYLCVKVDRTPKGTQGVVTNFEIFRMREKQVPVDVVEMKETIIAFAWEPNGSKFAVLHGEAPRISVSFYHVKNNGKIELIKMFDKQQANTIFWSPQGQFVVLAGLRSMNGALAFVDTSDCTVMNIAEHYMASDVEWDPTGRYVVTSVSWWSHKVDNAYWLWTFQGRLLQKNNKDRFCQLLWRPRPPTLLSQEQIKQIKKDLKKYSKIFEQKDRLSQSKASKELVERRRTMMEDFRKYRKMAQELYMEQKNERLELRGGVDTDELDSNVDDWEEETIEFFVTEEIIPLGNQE
# ± gives the standard deviation of the averaged measurements. This is one part of the list.
# Compound: Nc1nc2c(ncn2[C@@H]2O[C@H](COP(=O)(O)OP(=O)(O)OP(=O)(O)O)[C@@H](O)[C@H]2O)c(=O)[nH]1 [guanosine triphosphate]
# Assay: NP40-soluble protein abundance relative to vehicle (solubility fold change) (ratio); higher = more soluble protein in presence of GTP
# Experimental: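 Solubility proteome profiling in Jurkat crude lysate. Lysate was treated with Mg-GTP (0.1-10 mM) for 10 min at room temperature and 3 min at 37 °C, then solubilised with 0.8% NP40 and benzonase, followed by ultracentrifugation. Proteins were quantified by TMT10 LC-MS/MS; the value is the NP40-soluble abundance relative to the NP40-processed vehicle, from 3 independent experiments.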
target,measurement,setting,value
UniProt P84022,NP40-soluble protein abundance,concentration: 0.1mM,1.0241 ± 0.00028
same,NP40-soluble protein abundance,concentration: 0.5mM,1.04 ± 0.099
same,NP40-soluble protein abundance,concentration: 1mM,0.965 ± 0.021
same,NP40-soluble protein abundance,concentration: 2mM,1.02 ± 0.022
same,NP40-soluble protein abundance,concentration: 4mM,1.03 ± 0.015
same,NP40-soluble protein abundance,concentration: 6mM,1.04 ± 0.038
same,NP40-soluble protein abundance,concentration: 8mM,1.012 ± 0.0063
same,NP40-soluble protein abundance,concentration: 10mM,0.953 ± 0.023
HIRA (UniProt P54198),NP40-soluble protein abundance,concentration: 0.1mM,1.07 ± 0.036
same,NP40-soluble protein abundance,concentration: 0.5mM,1.06 ± 0.011
same,NP40-soluble protein abundance,concentration: 1mM,1.02 ± 0.026
same,NP40-soluble protein abundance,concentration: 2mM,1.13 ± 0.1
same,NP40-soluble protein abundance,concentration: 4mM,1.13 ± 0.1
same,NP40-soluble protein abundance,concentration: 6mM,1.13 ± 0.17
same,NP40-soluble protein abundance,concentration: 8mM,1.15 ± 0.021
same,NP40-soluble protein abundance,concentration: 10mM,1.22 ± 0.021
UniProt P55199 and related entries,NP40-soluble protein abundance,concentration: 0.1mM,1.04 ± 0.054
same,NP40-soluble protein abundance,concentration: 0.5mM,1.02 ± 0.05
same,NP40-soluble protein abundance,concentration: 1mM,1.02 ± 0.013
same,NP40-soluble protein abundance,concentration: 2mM,1.01 ± 0.05
same,NP40-soluble protein abundance,concentration: 4mM,1.02 ± 0.033
same,NP40-soluble protein abundance,concentration: 6mM,1.01 ± 0.05
same,NP40-soluble protein abundance,concentration: 8mM,1.029 ± 0.0093
same,NP40-soluble protein abundance,concentration: 10mM,1.03 ± 0.034
UniProt P61964,NP40-soluble protein abundance,concentration: 0.1mM,0.981 ± 0.031
same,NP40-soluble protein abundance,concentration: 0.5mM,1.05 ± 0.039
same,NP40-soluble protein abundance,concentration: 1mM,1.01 ± 0.016
same,NP40-soluble protein abundance,concentration: 2mM,1.07 ± 0.06
same,NP40-soluble protein abundance,concentration: 4mM,1.1 ± 0.083
same,NP40-soluble protein abundance,concentration: 6mM,1.13 ± 0.085
same,NP40-soluble protein abundance,concentration: 8mM,1.11 ± 0.076
same,NP40-soluble protein abundance,concentration: 10mM,1.11 ± 0.058
UniProt P55884 and related entries,NP40-soluble protein abundance,concentration: 0.1mM,1.02 ± 0.042
same,NP40-soluble protein abundance,concentration: 0.5mM,1.07 ± 0.056
same,NP40-soluble protein abundance,concentration: 1mM,1.03 ± 0.068
same,NP40-soluble protein abundance,concentration: 2mM,1.14 ± 0.18
same,NP40-soluble protein abundance,concentration: 4mM,1.29 ± 0.26
same,NP40-soluble protein abundance,concentration: 6mM,1.46 ± 0.33
same,NP40-soluble protein abundance,concentration: 8mM,1.55 ± 0.34
same,NP40-soluble protein abundance,concentration: 10mM,1.75 ± 0.36

# Some of the entries so far, with bars between the fields.
target | measurement | setting | value
UniProt P55884 and related entries | NP40-soluble protein abundance | concentration: 2mM | 1.14 ± 0.18
same | NP40-soluble protein abundance | concentration: 4mM | 1.29 ± 0.26
same | NP40-soluble protein abundance | concentration: 6mM | 1.46 ± 0.33
